Structures can show the parent of a compound that is named as a salt. The list shows a part of the results. Small differences around the control level are noise.
system: hPSC-derived cortical neurons (WA09); assay: total neurite length per nucleus (MAP2) z-score; higher = more neurite growth; settings: 5 µM; treatment: days 7-14 after plating, readout day 21

Structure (SMILES)	total neurite length per nucleus (z-score)
CCN(CC)Cc1cc(Nc2ccnc3cc(Cl)ccc23)ccc1O [Amodiaquine dihydrochloride dihydrate]	-1.23
CC(=O)[C@]1(O)Cc2c(O)c3c(c(O)c2[C@@H](O[C@H]2C[C@H](N)[C@H](O)[C@H](C)O2)C1)C(=O)c1ccccc1C3=O [Idarubicin HCl]	-6.16
C=CC(=O)Nc1cccc(Nc2nc(Nc3ccc(OCCOC)cc3)ncc2F)c1	0.21
CC[C@H]1OC(=O)[C@H](C)[C@@H](O[C@H]2C[C@@](C)(OC)[C@@H](O)[C@H](C)O2)[C@H](C)[C@@H](O[C@@H]2O[C@H](C)C[C@H](N(C)C)[C@H]2O)[C@](C)(O)C[C@@H](C)/C(=N\OCOCCOC)[C@H](C)[C@@H](O)[C@]1(C)O [Roxithromycin]	-0.0269
CCCNC(=O)NS(=O)(=O)c1ccc(Cl)cc1 [Chlorpropamide]	0.472

Reference: the supplement of paper PMC11348887
